Source: article PMC12819557

Key:
Assay in all cases: two-hybrid; bacterial adenylate cyclase two-hybrid (BACTH) in E. coli Oxi-Blue; T18 (FLAG) and T25 (6His) fusions co-transformed; LB agar with Tic, Km, IPTG 0.5 mM and X-gal 40 µg/ml, 30 °C, colour of colonies after 24 to 48 h
[1] = target: T1, N-terminal domain of PilC1 (pilC1 1-475) (Neisseria meningitidis) (UniProt O05924)
T1 sequence: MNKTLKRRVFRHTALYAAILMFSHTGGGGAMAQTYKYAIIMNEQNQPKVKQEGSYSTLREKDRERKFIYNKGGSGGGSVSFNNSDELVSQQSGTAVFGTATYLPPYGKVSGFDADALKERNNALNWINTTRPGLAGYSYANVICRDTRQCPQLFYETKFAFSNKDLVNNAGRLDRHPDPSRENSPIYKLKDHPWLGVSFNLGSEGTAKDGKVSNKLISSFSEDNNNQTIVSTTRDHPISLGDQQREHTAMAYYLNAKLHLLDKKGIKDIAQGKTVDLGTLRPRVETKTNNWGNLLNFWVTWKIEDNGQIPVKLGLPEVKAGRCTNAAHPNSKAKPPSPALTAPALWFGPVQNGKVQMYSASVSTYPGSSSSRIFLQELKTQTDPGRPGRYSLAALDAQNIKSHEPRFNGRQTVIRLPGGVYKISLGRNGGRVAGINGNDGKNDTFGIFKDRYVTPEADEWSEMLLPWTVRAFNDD

[2] = target: T2, N-terminal domain of PilC2 (pilC2 2-492) (Neisseria meningitidis) (UniProt O05925)
T2 sequence: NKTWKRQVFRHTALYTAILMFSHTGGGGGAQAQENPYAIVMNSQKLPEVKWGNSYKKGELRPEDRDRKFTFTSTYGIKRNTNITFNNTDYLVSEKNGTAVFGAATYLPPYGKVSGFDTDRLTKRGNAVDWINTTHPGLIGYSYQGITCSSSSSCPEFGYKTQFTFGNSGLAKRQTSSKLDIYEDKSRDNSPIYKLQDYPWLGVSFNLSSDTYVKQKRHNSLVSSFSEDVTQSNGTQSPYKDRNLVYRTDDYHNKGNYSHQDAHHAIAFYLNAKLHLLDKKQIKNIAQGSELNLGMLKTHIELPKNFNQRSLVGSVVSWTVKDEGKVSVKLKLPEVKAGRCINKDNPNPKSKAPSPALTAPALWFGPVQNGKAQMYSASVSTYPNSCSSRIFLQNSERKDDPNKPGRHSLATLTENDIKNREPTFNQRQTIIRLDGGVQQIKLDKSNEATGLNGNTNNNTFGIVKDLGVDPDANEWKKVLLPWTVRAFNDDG

[3] = target: T3, C-terminal domain of PilC1 (pilC1 476-1021) (Neisseria meningitidis) (UniProt O05924)
T3 sequence: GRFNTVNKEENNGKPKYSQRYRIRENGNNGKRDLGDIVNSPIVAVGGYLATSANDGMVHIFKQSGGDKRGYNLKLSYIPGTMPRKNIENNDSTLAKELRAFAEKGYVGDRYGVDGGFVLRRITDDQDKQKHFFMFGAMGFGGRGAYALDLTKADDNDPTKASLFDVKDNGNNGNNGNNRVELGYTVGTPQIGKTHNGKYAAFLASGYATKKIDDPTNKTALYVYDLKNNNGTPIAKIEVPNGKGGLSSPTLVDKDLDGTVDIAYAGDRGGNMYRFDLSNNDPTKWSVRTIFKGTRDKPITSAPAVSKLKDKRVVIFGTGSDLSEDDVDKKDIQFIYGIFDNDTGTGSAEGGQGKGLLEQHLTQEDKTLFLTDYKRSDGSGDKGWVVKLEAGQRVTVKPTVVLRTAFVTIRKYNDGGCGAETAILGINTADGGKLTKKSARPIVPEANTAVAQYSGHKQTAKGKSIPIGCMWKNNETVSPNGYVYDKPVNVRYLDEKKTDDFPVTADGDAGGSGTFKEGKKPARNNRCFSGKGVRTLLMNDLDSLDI

Measured: binding

MDAΦ ORF6
no binding: all assays above

Results are given in words; binding and its absence hold for the method and conditions named.
